These are yes or no findings as the source states them, for the method shown. A result given as binding can be weak or reduced; the word gives no strength.

Protein sequences, listed by entry. Tags and fused reporters are not part of them. Lines headed by an entry give the natural chain unless they say otherwise; changes in a name come on top.
UniProt P34021: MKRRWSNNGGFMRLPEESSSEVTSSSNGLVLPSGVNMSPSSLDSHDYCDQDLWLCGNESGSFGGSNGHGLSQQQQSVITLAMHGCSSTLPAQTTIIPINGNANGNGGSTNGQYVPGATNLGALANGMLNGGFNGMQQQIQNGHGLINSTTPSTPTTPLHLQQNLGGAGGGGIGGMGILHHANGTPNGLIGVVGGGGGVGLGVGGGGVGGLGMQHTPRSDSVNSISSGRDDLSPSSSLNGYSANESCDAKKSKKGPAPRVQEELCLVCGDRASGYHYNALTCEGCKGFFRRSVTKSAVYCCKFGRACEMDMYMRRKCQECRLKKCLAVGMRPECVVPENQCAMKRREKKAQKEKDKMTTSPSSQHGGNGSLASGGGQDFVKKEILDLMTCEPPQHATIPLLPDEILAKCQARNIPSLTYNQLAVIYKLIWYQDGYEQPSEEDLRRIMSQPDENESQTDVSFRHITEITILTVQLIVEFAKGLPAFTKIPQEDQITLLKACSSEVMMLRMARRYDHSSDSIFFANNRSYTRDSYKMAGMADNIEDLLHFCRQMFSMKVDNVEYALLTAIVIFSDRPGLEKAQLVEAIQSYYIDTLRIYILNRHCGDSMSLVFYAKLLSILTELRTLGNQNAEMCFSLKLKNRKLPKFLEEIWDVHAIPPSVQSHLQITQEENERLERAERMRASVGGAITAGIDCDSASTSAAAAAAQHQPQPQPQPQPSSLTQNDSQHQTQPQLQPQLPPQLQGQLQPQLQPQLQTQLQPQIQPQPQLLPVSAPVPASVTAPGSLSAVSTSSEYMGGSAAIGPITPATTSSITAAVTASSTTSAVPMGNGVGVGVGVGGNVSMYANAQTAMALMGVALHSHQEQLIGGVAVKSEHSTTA
UniProt O44960: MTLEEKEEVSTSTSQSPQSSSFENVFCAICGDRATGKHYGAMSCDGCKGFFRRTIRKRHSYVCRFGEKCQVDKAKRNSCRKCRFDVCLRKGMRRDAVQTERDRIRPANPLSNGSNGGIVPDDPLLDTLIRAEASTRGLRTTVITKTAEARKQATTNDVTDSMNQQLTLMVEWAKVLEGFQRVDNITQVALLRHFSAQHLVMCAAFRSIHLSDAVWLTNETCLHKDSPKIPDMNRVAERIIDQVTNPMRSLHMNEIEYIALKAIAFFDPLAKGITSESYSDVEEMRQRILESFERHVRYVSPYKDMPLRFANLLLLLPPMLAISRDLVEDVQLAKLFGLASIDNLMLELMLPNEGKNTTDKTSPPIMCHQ
UniProt P20153: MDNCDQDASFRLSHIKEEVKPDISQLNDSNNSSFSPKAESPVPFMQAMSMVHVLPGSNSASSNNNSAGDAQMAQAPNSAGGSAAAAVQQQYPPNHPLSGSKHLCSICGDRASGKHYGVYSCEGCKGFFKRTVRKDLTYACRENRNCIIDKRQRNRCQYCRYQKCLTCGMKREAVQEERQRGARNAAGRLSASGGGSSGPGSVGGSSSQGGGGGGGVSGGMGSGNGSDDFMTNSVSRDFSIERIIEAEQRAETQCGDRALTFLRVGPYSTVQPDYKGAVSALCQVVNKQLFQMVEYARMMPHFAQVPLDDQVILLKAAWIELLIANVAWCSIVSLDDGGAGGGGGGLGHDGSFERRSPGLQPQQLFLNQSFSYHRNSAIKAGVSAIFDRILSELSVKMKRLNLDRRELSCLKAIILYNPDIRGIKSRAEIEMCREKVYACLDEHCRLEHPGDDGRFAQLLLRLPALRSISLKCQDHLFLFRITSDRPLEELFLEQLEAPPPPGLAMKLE

Results on two substances are retold here after paper PMC13195034.

This experiment deals with Drosophila melanogaster ecdysone receptor (ECR), ligand-binding domain (Drosophila melanogaster) (UniProt P34021). The experiment is described as follows: two-hybrid; Matchmaker Gold system, Y2HGold yeast co-transformed with pGBKT7 (bait) and pGADT7 (prey); HIS3 and MEL1 reporters on SD-Leu-Trp-His/X-alpha-gal plates, streak method, growth and blue colour within 24-48 h; without ligand.

“Caenorhabditis elegans NHR-64, ligand-binding domain (from UniProt O44960) (domain or fragment)”: the binding result is “binds”.
On to “Drosophila melanogaster USP, ligand-binding domain (from UniProt P20153) (domain or fragment)”, for which the binding result is listed as “binds weakly”.
